Measured values taken from publication PMC5737332.

Tests used:
HMGA1a (Δ50-91) (human) = molecular target: T1, HMGA1a (Δ50-91) (human) (UniProt P17096); assay: SPR; details: K2, secondary site of two-site fit, likely nonspecific binding to hairpin loop; SPR (Biacore X-100), HEPES 1 buffer: 10 mM HEPES, 3 mM EDTA, 200 mM NaCl, 0.05% P-20, pH 7.4, 25 C; recombinant protein; residues 50-91; label: 5'-biotin; folded or branched DNA
T1 sequence (looked up): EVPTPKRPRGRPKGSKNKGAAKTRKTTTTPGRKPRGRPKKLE

[1] = molecular target: T2, HMGB1 box A and box B (rat) (UniProt P63159); assay: SPR; details: K2, secondary site of two-site fit, likely nonspecific binding to hairpin loop; SPR (Biacore X-100), HEPES 1 buffer: 10 mM HEPES, 3 mM EDTA, 200 mM NaCl, 0.05% P-20, pH 7.4, 25 C; recombinant protein; residues 8-165; label: 5'-biotin; folded or branched DNA
T2 sequence (looked up): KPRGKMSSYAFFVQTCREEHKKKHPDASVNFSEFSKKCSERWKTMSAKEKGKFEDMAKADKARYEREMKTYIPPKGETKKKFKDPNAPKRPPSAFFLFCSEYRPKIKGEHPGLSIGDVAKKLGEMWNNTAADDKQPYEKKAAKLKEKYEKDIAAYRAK

“GGGGAATAATCGCGATTATTCCCCAATAATCGCGATTATT [AATAAT_ATTATT hairpin]” was tested, and the Kd (HMGA1a (Δ50-91) (human)) was 11.3 µM and the Kd [1] was 5.91 µM.

The exact form of at least one protein or probe is not confirmed. Protein sequences can lack the tags named with them.
